Experimental data as given in article doi:10.1101/2022.07.02.498517.

T1: Atp6 subunit C-terminally tagged by HA-6xHis (S. cerevisiae) (UniProt P00854)
T1 sequence: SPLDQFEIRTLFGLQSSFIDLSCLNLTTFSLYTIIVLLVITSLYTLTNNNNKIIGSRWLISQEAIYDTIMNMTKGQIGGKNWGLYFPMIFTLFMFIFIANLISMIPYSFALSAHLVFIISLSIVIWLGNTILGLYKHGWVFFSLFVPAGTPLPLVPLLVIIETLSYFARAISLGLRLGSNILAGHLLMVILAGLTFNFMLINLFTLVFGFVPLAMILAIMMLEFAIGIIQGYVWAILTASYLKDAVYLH

B1: Atp16 (subunit δ) (protein, UniProt Q12165 23-160)
chain: AEAAAASSGLKLQFALPHETLYSGSEVTQVNLPAKSGRIGVLANHVPTVEQLLPGVVEVMEGSNSKKFFISGGFATVQPDSQLCVTAIEAFPLESFSQENIKNLLAEAKKNVSSSDAREAAEAAIQVEVLENLQSVLK
B2: Atp20 (subunit g) (protein, UniProt Q12233 1-115)
chain: MLSRIQNYTSGLVSKANLLSSKALYYGKVGAEISKQIYLKEGLQPPTVAQFKSVYSNLYKQSLNFALKPTEVLSCLKNIQKNELLKYGAYGIQLIGFYSVGEIIGRRKLVGYKHH
B3: Atp15 (subunit ε) (protein, UniProt P21306 1-62)
chain: MSAWRKAGISYAAYLNVAAQAIRSSLKTELQTASVLNRSQTDAFYTQYKNGTAASEPTPITK
B4: Atp18 (subunit i) (protein, UniProt P81450 1-59)
chain: MLKRFPTPILKVYWPFFVAGAAVYYGMSKAADLSSNTKEFINDPRNPRFAKGGKFVEVD
B5: ATPase activity inhibitor protein Inh1 (protein, UniProt P01097 23-85)
chain: SEGSTGTPRGSGSEDSFVKRERATEDFFVRQREKEQLRHLKEQLEKQRKKIDSLENKIDSMTK
B6: Atp21 (subunit e) (protein, UniProt P81449 1-96)
chain: MSTVNVLRYSALGLGLFFGFRNDMILKCNAKKKEEQAQYEEKLKLVEEAKKEYAKLHPVVTPKDVPANASFNLEDPNIDFERVILNAVESLKEAST
B7: Mco10 (Mitochondrial class one protein of 10 kDa) (protein, UniProt Q3E824 1-90)
chain: MGAAYKVFGKTVQPHVLAISTFIATAAVASYFTTKPKTKNEGKNSSALSQQKSGESSNSDAMGKDDDVVKSIEGFLNDLEKDTRQDTKAN
B8: Atp19 (subunit k) (protein, UniProt P81451 1-68)
chain: MGAAYHFMGKAIPPHQLAIGTLGLLGLLVVPNPFKSAKPKTVDIKTDNKDEEKFIENYLKKHSEKQDA

Target: T1, Atp6 subunit C-terminally tagged by HA-6xHis (S. cerevisiae)
Assay: affinity purification with mass spectrometry

binding | Molecule
binds | Cyt C (S. cerevisiae)
binds | B1
binds | B2
binds | B3
binds | B4
binds | B5
binds | B6
binds | B7
binds | B8

Results are given in words; binding and its absence hold for the method and conditions named. In cells and extracts the contact can be indirect. A yes stands for co-enrichment or nearness to the bait. Other partners may have been found. Where a sequence is shown, tags or fusion partners need not be part of it.
